Measurements: PubChem BioAssay AID256 (DTP/NCI, 2004)
The list shows only some results of the screen, not a fair sample: it gathers tests that were run many times, whatever their T/C, doses with no T/C, and many T/C values between a quarter and a half above the control. Further doses and runs are listed elsewhere. T/C: endpoint of the treated group in % of that of the vehicle group. Some entries give survivors of the animals treated and no T/C: the source files T/C as zero there, which appears to mark a toxic dose or a test without result, not a measured value. Some doses without a T/C left all or most animals alive at the check, yet need not have been tolerated: survival well below the control is almost never listed, so the zero probably covers shortened survival too. Survivors were counted at the toxicity check, usually on the fifth day, unless a day is given; later deaths do not show. Schedule codes are those of the source, taken here to give the interval after Q, in days (D) or hours (H), and the number of doses after X. Some doses were run more than once; their values stand side by side, smallest first. For survival time, the PubChem record calls one and a half times the control and up active, and a quarter to a half above the control has no call in these data; cut-offs in other NCI protocols can differ. Some T/C values are followed by the survivors on the day toxicity was checked, most often the fifth; where none is given, no animal had died by that day.

Tested on: CD2F1 mice, L1210 leukemia ip, survival T/C
Assay: NCI In Vivo Anticancer Drug Screen. Data for tumor model L1210 Leukemia (intraperitoneal) in CD2F1 (CDF1) mice
Conditions: T/C endpoint: mean survival time, higher T/C = longer survival
In short: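 Transplantable tumor in mice; compound-treated vs vehicle-treated groups. Read-out = treated/control ratio of the measured endpoint.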

[1] = dose: 64.0 mg/kg/injection, schedule: Q01DX009 (ip), vehicle: saline

SMILES: Nc1nncs1
- T/C (dose: 4.0 mg/kg/injection, schedule: Q03HX024 (ip), vehicle: alkali diluted with saline): 130 % of control
- T/C (dose: 4.0 mg/kg/injection, schedule: Q03HX024 (ip), vehicle: saline): 131 % of control
- T/C (dose: 8.0 mg/kg/injection, schedule: Q03HX008 (ip), vehicle: saline): 128 % of control
- T/C (dose: 8.0 mg/kg/injection, schedule: Q03HX016 (ip), vehicle: saline): 135 % of control
- T/C (dose: 16.0 mg/kg/injection, schedule: Q01DX009 (ip), vehicle: alkali diluted with saline): 127 % of control
- T/C (dose: 16.0 mg/kg/injection, schedule: Q01DX009 (ip), vehicle: other): 131 % of control
- T/C (dose: 16.0 mg/kg/injection, schedule: Q01DX009 (sc), vehicle: alkali diluted with saline): 128 % of control
- T/C (dose: 16.0 mg/kg/injection, schedule: Q03HX008 (ip), vehicle: alkali diluted with saline): 127 % of control
- T/C (dose: 16.0 mg/kg/injection, schedule: Q03HX008 (ip), vehicle: saline): 132 % of control
- T/C (dose: 16.0 mg/kg/injection, schedule: Q03HX016 (ip), vehicle: alkali diluted with saline): 140 % of control
- T/C (dose: 16.0 mg/kg/injection, schedule: Q03HX016 (ip), vehicle: saline): 145 % of control
- T/C (dose: 16.0 mg/kg/injection, schedule: Q03HX024 (ip), vehicle: saline): 127 % of control [9 of 10 alive]
- T/C (dose: 32.0 mg/kg/injection, schedule: Q01DX005 (ip), vehicle: water): 139 % of control
- T/C (dose: 32.0 mg/kg/injection, schedule: Q01DX005 (iv), vehicle: alkali diluted with saline): 128 % of control
- T/C (dose: 32.0 mg/kg/injection, schedule: Q01DX009 (ip), vehicle: alkali diluted with saline): 145 % of control
- T/C (dose: 32.0 mg/kg/injection, schedule: Q01DX009 (ip), vehicle: saline with Tween-80): 143 % of control
- T/C (dose: 32.0 mg/kg/injection, schedule: Q01DX009 (ip), vehicle: saline): 131, 138, 144 % of control
- T/C (dose: 32.0 mg/kg/injection, schedule: Q01DX009 (sc), vehicle: alkali diluted with saline): 139 % of control
- T/C (dose: 32.0 mg/kg/injection, schedule: Q03HX008 (ip), vehicle: alkali diluted with saline): 132 % of control
- T/C (dose: 32.0 mg/kg/injection, schedule: Q03HX016 (ip), vehicle: alkali diluted with saline): 148 % of control [8 of 10 alive]
- T/C (dose: 32.0 mg/kg/injection, schedule: Q03HX016 (ip), vehicle: saline): 129 % of control [9 of 10 alive]
- T/C (dose: 32.0 mg/kg/injection, schedule: Q03HX024 (ip), vehicle: alkali diluted with saline): 138 % of control
- T/C (dose: 64.0 mg/kg/injection, schedule: Q01DX005 (ip), vehicle: water): 132 % of control
- T/C (dose: 64.0 mg/kg/injection, schedule: Q01DX005 (iv), vehicle: alkali diluted with saline): 132 % of control
- T/C (dose: 64.0 mg/kg/injection, schedule: Q01DX009 (ip), vehicle: alkali diluted with saline): 147 % of control
- T/C [1]: 127 % of control
- survivor count [1]: 6 of 6
- survivor count (dose: 64.0 mg/kg/injection, schedule: Q01DX009 (oral), vehicle: alkali diluted with saline): 7 of 10
- T/C (dose: 64.0 mg/kg/injection, schedule: Q01DX009 (sc), vehicle: alkali diluted with saline): 132 % of control
- T/C (dose: 64.0 mg/kg/injection, schedule: Q03HX008 (ip), vehicle: alkali diluted with saline): 132 % of control [8 of 10 alive]
- T/C (dose: 64.0 mg/kg/injection, schedule: Q03HX008 (ip), vehicle: saline): 137 % of control [7 of 10 alive]
- T/C (dose: 64.0 mg/kg/injection, schedule: Q03HX016 (ip), vehicle: alkali diluted with saline): 142 % of control [7 of 10 alive]
- survivor count (dose: 64.0 mg/kg/injection, schedule: Q03HX016 (ip), vehicle: saline): 5 of 10
- survivor count (dose: 64.0 mg/kg/injection, schedule: Q03HX024 (ip), vehicle: saline): 9 of 10
- T/C (dose: 64.0 mg/kg/injection, schedule: Q04DX003 (ip), vehicle: alkali diluted with saline): 141 % of control
- T/C (dose: 65.0 mg/kg/injection, schedule: Q04DX003 (ip), vehicle: water): 129 % of control
- T/C (dose: 108.0 mg/kg/injection, schedule: Q04DX003 (ip), vehicle: water): 137 and 141 % of control
- T/C (dose: 128.0 mg/kg/injection, schedule: Q01DX001 (ip), vehicle: alkali diluted with saline): 125 % of control
- survivor count (dose: 128.0 mg/kg/injection, schedule: Q01DX001 (oral), vehicle: alkali diluted with saline): 5 of 10
- T/C (dose: 128.0 mg/kg/injection, schedule: Q01DX005 (iv), vehicle: alkali diluted with saline): 127 % of control
- T/C (dose: 128.0 mg/kg/injection, schedule: Q01DX009 (ip), vehicle: alkali diluted with saline): 132 % of control [9 of 10 alive]
- survivor count (dose: 128.0 mg/kg/injection, schedule: Q01DX009 (ip), vehicle: other): 9 of 10
- survivor count (dose: 128.0 mg/kg/injection, schedule: Q01DX009 (ip), vehicle: saline with Tween-80): 6 of 6
- survivor count (dose: 128.0 mg/kg/injection, schedule: Q01DX009 (ip), vehicle: saline): 3 of 6 and 6 of 6
- survivor count (dose: 128.0 mg/kg/injection, schedule: Q01DX009 (oral), vehicle: alkali diluted with saline): 6 of 10
- survivor count (dose: 128.0 mg/kg/injection, schedule: Q01DX009 (oral), vehicle: other): 8 of 10
- T/C (dose: 128.0 mg/kg/injection, schedule: Q03HX008 (ip), vehicle: alkali diluted with saline): 146 % of control [9 of 10 alive]
- survivor count (dose: 128.0 mg/kg/injection, schedule: Q03HX008 (ip), vehicle: saline): 6 of 10
- survivor count (dose: 128.0 mg/kg/injection, schedule: Q03HX016 (ip), vehicle: alkali diluted with saline): 3 of 10
- survivor count (dose: 128.0 mg/kg/injection, schedule: Q03HX016 (ip), vehicle: saline): 5 of 10
- T/C (dose: 128.0 mg/kg/injection, schedule: Q04DX003 (ip), vehicle: alkali diluted with saline): 142 % of control
- T/C (dose: 128.0 mg/kg/injection, schedule: Q04DX003 (ip), vehicle: other): 143 % of control
- T/C (dose: 250.0 mg/kg/injection, schedule: Q04DX003 (ip), vehicle: water): 144 % of control
- T/C (dose: 256.0 mg/kg/injection, schedule: Q01DX001 (ip), vehicle: alkali diluted with saline): 132 % of control
- T/C (dose: 256.0 mg/kg/injection, schedule: Q01DX001 (iv), vehicle: alkali diluted with saline): 129 % of control
- T/C (dose: 256.0 mg/kg/injection, schedule: Q01DX001 (oral), vehicle: alkali diluted with saline): 125 % of control [8 of 10 alive]
- T/C (dose: 256.0 mg/kg/injection, schedule: Q01DX001 (sc), vehicle: alkali diluted with saline): 127 % of control
- survivor count (dose: 256.0 mg/kg/injection, schedule: Q01DX009 (ip), vehicle: other): 2 of 10
- survivor count (dose: 256.0 mg/kg/injection, schedule: Q01DX009 (ip), vehicle: saline with Tween-80): 2 of 6 and 5 of 6
- survivor count (dose: 256.0 mg/kg/injection, schedule: Q01DX009 (ip), vehicle: saline): 2 of 6 and 4 of 6
- survivor count (dose: 256.0 mg/kg/injection, schedule: Q01DX009 (oral), vehicle: alkali diluted with saline): 0 of 10
- survivor count (dose: 256.0 mg/kg/injection, schedule: Q01DX009 (oral), vehicle: other): 5 of 10
- survivor count (dose: 256.0 mg/kg/injection, schedule: Q01DX009 (sc), vehicle: alkali diluted with saline): 4 of 10
- T/C (dose: 256.0 mg/kg/injection, schedule: Q08DX002 (ip), vehicle: alkali diluted with saline): 129 % of control
- T/C (dose: 256.0 mg/kg/injection, schedule: Q08DX002 (ip), vehicle: other): 128 % of control
- T/C (dose: 400.0 mg/kg/injection, schedule: Q04DX003 (ip), vehicle: water): 130 % of control
- T/C (dose: 500.0 mg/kg/injection, schedule: Q04DX003 (ip), vehicle: water, evaluated on day 5): 182 and 196 % of control
- T/C (dose: 500.0 mg/kg/injection, schedule: Q04DX003 (ip), vehicle: water, evaluated on day 30): 153 and 160 % of control
- T/C (dose: 512.0 mg/kg/injection, schedule: Q01DX001 (ip), vehicle: alkali diluted with saline): 134 % of control
- T/C (dose: 512.0 mg/kg/injection, schedule: Q01DX001 (ip), vehicle: other): 131 % of control
- T/C (dose: 512.0 mg/kg/injection, schedule: Q01DX001 (iv), vehicle: alkali diluted with saline): 131 % of control
- survivor count (dose: 512.0 mg/kg/injection, schedule: Q01DX001 (oral), vehicle: alkali diluted with saline): 4 of 10
- T/C (dose: 512.0 mg/kg/injection, schedule: Q01DX001 (sc), vehicle: alkali diluted with saline): 128 % of control
- survivor count (dose: 512.0 mg/kg/injection, schedule: Q01DX009 (oral), vehicle: alkali diluted with saline): 0 of 10
- T/C (dose: 512.0 mg/kg/injection, schedule: Q08DX002 (ip), vehicle: other): 134 % of control
- T/C (dose: 1024.0 mg/kg/injection, schedule: Q01DX001 (ip), vehicle: alkali diluted with saline): 134 % of control
- T/C (dose: 1024.0 mg/kg/injection, schedule: Q01DX001 (sc), vehicle: alkali diluted with saline): 133 % of control
- survivor count (dose: 1024.0 mg/kg/injection, schedule: Q01DX009 (oral), vehicle: alkali diluted with saline): 0 of 10
- T/C (dose: 1024.0 mg/kg/injection, schedule: Q08DX002 (ip), vehicle: other): 129 % of control
